These are yes or no findings as the source states them, for the method shown. Some results given as binding are weak or reduced against the parent protein; the word gives no strength.
Assays:
[1] = target: HSP90 endogenous to CHO cells (Hamster) (UniProt P46633); test: mutant expressed in CHO cells; HSP90 immunoprecipitation, immunoblot for EGFR
[2] = target: HSP90 endogenous to CHO cells (Hamster) (UniProt P46633); test: HSP90 immunoprecipitation from transfected CHO cells, legend of FIG. 1c
[3] = target: HSP90 endogenous to CHO cells (Hamster) (UniProt P46633); test: full length EGFR expressed in ErbB2-negative CHO cells; HSP90 immunoprecipitation, immunoblot for EGFR

By UniProt entry, the sequences of proteins in these tests, tags left out.
UniProt P46633: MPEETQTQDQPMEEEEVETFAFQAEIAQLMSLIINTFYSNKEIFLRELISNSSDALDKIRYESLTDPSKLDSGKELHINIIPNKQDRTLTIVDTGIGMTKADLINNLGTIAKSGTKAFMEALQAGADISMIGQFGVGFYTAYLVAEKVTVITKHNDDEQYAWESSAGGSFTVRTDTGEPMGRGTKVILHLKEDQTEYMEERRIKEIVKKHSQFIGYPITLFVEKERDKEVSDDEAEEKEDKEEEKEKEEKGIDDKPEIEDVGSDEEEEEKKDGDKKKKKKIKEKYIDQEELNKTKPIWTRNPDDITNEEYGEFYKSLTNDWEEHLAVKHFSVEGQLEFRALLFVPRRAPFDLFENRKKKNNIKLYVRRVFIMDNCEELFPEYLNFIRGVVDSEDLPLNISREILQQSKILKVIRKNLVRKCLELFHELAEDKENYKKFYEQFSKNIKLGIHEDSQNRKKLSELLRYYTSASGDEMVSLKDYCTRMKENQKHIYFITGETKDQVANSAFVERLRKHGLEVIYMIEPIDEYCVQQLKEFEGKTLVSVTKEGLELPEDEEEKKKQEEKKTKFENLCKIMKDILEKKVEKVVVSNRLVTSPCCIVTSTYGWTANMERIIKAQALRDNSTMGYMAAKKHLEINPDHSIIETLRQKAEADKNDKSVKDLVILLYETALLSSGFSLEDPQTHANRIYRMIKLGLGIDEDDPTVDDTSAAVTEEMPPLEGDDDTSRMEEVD

| binding [1] | binding [2] | binding [3] | Substance |
| --- | --- | --- | --- |
| binds | – | – | S768D-EGFR (from UniProt P00533 25-1210) (receptor) |
| binds | – | – | DN770-771AA EGFR (from UniProt P00533 25-1210) (receptor) |
| – | binds | binds | WT-EGFR construct (full length EGFR) expressed in CHO cells (from UniProt P00533 25-1210) (receptor) |
| binds | – | – | D770G-EGFR (from UniProt P00533 25-1210) (receptor) |
| binds | – | – | P772G-EGFR (from UniProt P00533 25-1210) (receptor) |
| binds | – | – | S768A-EGFR (from UniProt P00533 25-1210) (receptor) |
| binds | – | – | S768I-EGFR (from UniProt P00533 25-1210) (receptor) |
